Measured values as given in the supplement of paper PMC10849652.
The list shows a part of the results.

Protein sequences, listed by entry. Tags and fused reporters are not part of them. Lines headed by an entry give the natural chain unless they say otherwise; changes in a name come on top.
UniProt P54132: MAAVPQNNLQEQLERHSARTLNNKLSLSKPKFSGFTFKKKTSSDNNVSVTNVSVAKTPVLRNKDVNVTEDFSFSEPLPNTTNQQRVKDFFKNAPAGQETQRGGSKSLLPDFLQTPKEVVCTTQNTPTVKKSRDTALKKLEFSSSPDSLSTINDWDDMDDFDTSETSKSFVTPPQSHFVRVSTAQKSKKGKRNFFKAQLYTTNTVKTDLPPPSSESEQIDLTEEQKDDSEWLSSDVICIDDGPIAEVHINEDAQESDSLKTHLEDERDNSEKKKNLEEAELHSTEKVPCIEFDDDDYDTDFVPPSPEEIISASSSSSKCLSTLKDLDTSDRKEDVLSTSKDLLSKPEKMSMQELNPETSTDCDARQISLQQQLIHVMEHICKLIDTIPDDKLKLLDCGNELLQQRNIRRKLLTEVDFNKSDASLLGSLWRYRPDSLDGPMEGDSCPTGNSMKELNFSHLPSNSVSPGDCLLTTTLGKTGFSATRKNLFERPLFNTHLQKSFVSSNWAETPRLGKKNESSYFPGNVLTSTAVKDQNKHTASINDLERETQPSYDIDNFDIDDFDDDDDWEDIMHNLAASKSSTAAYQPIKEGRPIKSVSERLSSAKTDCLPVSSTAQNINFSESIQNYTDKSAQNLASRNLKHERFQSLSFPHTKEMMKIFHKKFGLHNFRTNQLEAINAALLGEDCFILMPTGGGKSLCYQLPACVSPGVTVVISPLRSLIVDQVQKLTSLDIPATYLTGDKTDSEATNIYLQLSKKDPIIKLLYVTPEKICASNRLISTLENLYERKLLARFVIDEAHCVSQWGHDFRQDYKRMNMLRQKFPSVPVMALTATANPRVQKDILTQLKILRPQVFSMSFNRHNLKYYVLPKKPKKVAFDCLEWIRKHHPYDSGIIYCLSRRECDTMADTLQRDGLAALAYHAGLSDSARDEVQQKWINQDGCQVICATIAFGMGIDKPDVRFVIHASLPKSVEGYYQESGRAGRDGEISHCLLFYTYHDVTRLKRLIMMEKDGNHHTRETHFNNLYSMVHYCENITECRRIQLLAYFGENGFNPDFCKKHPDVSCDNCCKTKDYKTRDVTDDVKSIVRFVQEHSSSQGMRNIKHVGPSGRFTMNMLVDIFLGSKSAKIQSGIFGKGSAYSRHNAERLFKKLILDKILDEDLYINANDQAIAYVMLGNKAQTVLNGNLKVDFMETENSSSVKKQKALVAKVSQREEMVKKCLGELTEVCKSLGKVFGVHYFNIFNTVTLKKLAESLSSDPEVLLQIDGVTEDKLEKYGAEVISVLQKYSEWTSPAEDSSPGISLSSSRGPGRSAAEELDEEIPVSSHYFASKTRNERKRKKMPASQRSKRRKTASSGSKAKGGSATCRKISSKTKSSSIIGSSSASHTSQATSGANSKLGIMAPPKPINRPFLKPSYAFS
UniProt Q9UIG0: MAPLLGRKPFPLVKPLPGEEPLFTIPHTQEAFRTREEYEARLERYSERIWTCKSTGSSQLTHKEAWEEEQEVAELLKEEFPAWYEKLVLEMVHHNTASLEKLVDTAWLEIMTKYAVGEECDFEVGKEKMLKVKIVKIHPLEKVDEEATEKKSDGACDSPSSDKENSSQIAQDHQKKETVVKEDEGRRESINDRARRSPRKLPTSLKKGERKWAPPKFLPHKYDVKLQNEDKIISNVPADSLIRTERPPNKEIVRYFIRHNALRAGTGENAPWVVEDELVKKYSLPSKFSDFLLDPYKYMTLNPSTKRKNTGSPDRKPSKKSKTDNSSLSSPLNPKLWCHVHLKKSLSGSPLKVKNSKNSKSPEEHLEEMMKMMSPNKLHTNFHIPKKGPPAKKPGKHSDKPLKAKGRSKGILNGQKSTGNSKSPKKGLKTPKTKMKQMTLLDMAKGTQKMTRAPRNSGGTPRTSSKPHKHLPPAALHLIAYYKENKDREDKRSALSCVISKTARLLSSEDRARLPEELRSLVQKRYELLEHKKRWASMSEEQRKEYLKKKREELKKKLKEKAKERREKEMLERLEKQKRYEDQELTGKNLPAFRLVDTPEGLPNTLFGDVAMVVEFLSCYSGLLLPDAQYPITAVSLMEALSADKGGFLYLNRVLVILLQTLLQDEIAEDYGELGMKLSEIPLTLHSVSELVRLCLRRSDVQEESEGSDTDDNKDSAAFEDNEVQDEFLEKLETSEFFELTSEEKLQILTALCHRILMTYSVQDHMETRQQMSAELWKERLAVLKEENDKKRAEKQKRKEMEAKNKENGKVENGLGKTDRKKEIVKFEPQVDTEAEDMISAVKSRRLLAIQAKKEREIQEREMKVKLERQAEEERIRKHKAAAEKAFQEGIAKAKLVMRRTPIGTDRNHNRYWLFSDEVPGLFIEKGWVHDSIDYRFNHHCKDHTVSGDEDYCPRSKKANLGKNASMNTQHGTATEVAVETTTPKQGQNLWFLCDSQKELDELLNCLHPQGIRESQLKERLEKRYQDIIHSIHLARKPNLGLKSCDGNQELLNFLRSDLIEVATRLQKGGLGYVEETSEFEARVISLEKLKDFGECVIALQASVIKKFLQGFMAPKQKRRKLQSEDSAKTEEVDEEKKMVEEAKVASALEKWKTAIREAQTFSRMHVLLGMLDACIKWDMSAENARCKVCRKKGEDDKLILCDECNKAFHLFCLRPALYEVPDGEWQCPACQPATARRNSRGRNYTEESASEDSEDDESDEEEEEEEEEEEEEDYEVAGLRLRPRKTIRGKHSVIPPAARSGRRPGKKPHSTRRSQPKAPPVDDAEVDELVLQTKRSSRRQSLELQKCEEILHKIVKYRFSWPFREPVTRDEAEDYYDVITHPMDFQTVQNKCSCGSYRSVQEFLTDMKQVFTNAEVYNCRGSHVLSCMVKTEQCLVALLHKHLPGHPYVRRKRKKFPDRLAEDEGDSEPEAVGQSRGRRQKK
UniProt Q06187: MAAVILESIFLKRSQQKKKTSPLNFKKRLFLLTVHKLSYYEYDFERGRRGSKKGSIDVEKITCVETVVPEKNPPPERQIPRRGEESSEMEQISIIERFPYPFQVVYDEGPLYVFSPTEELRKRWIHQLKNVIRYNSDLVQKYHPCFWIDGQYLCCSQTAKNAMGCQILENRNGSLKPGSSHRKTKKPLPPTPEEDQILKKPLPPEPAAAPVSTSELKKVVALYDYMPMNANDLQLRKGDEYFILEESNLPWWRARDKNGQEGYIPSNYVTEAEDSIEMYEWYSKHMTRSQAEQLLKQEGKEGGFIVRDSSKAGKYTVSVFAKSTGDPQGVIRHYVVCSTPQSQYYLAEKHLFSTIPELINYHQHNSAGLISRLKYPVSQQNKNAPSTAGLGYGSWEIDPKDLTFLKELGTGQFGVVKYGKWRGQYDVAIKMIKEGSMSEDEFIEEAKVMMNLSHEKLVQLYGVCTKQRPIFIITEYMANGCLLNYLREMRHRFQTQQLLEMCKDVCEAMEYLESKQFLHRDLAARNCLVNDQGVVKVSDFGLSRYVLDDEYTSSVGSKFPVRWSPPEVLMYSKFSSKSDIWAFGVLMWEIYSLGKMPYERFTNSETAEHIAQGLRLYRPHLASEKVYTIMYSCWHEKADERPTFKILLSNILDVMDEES
UniProt Q9BXH1: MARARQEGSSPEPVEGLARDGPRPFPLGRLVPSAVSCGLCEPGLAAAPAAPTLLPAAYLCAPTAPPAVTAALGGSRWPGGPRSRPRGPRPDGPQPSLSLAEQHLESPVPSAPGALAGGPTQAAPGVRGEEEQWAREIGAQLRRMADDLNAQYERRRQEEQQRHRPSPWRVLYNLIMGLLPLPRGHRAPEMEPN

Tests used:
Assay in all cases: log2 fold change, soluble protein after heating vs DMSO (PISA); higher = thermal stabilisation; K562 lysate, 10 uM; active = over 0.2 and 3.5 SD of the protein, either way, in both replicates (recomputed)
[1] = compound: CCCS(=O)(=O)Nc1ccc(F)c(C(=O)c2c[nH]c3ncc(-c4ccc(Cl)cc4)cc23)c1F [vemurafenib]
Outline: (§1)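 K562 pellets were dounce-homogenised in PBS pH 7.4 with 1 mM MgCl2, and the crude extract at 1 mg/mL protein was treated with 10 μM compound for 30 min. Aliquots were heated for 3 min across 48°C-58°C, pooled, and brought to 0.5% NP-40 at 4°C; soluble protein was the supernatant after 21,000xg for 90 min. Soluble protein was quantified by TMTpro 16plex LC-MS/MS with channel sums equalised, and reported as log2 fold change in thermal stability against DMSO controls, with values from duplicates.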

[2] = compound: CCCS(=O)(=O)Nc1ccc(F)c(C(=O)c2c[nH]c3ncc(Cl)cc23)c1F
Outline: as §1

[3] = compound: CCN(CCCOc1ccc2c(Nc3cc(CC(=O)Nc4cccc(F)c4)[nH]n3)ncnc2c1)CCOP(=O)(O)O [barasertib]
Outline: as §1

[4] = compound: CC[C@@H]1C(=O)N(C)c2cnc(Nc3ccc(C(=O)NC4CCN(C)CC4)cc3OC)nc2N1C1CCCC1
Outline: as §1

[5] = compound: CC[C@@H]1C(=O)N(C)c2cnc(Nc3ccc(C(=O)N[C@H]4CC[C@H](N5CCN(CC6CC6)CC5)CC4)cc3OC)nc2N1C(C)C [volasertib]
Outline: as §1

[6] = compound: CCn1c(C(=O)N(C2CC2)C2CC2)cc2c3c(ncn3C)c(Nc3cc(C)n(C)n3)nc21
Outline: as §1

[7] = compound: CCn1cc(-c2ccnc3[nH]c(-c4cccc(CN(C)C)c4)cc23)c(-c2ccc(NC(=O)N(C)C)cc2)n1
Outline: as §1

[8] = compound: CN1CCC(CNc2ccc3ncc(-c4cccc(OC(F)(F)F)c4)n3n2)CC1
Outline: as §1

[9] = compound: CN1CCN(CCOc2cc(OC3CCOCC3)c3c(Nc4c(Cl)ccc5c4OCO5)ncnc3c2)CC1 [saracatinib]
Outline: as §1

[10] = compound: CN1CCN(c2nc(C3=C(c4c[nH]c5ccccc45)C(=O)NC3=O)c3ccccc3n2)CC1 [sotrastaurin]
Outline: as §1

[11] = compound: CN1CC[C@H](c2c(O)cc(O)c3c(=O)cc(-c4ccccc4Cl)oc23)[C@H](O)C1 [alvocidib]
Outline: as §1

[12] = compound: CN1CCc2c(c3ccccc3n2Cc2ccc(C(=O)NO)cc2)C1 [Tubastatin A]
Outline: as §1

[13] = compound: CNC(=O)C1=CC=CC=C1NC2=NC(=NC=C2Cl)NC3=C(C=C(C=C3)N4CCOCC4)OC
Outline: as §1

[14] = compound: CNC(=O)c1ccc(Nc2ncc(C(F)(F)F)c(NCc3nccnc3N(C)S(C)(=O)=O)n2)cc1 [defactinib]
Outline: as §1

[15] = compound: CNc1nc(-c2ccc3c(N)n[nH]c3c2)cc(N2C[C@@H](C(=O)NC3CCCCC3)CC[C@H]2C)n1
Outline: as §1

[16] = compound: COC(=O)N[C@@H](C)CNc1nccc(-c2cn(C(C)C)nc2-c2cc(Cl)cc(NS(C)(=O)=O)c2F)n1 [encorafenib]
Outline: as §1

[17] = compound: COC(=O)[C@H](CCSC)NC(=O)C1=C(C=C(C=C1)NC[C@H](CS)N)C2=CC=CC=C2
Outline: as §1

[18] = compound: COc1cc(Nc2ncc3c(n2)-c2ccc(Cl)cc2C(c2c(F)cccc2OC)=NC3)ccc1C(=O)O [alisertib]
Outline: as §1

[19] = compound: COc1cc2nc(-c3cc(F)ccc3O)nc(N[C@@H]3CNC[C@H]3C(C)(C)O)c2cc1OC
Outline: as §1

[20] = compound: COc1cc2ncnc(Nc3ccc(F)c(Cl)c3)c2cc1OCCCN1CCOCC1 [gefitinib]
Outline: as §1

Measured: log2 fold change

BLM (UniProt P54132)
inactive: [1] 0.007 | [2] 0.013 | [3] -0.071 | [4] -0.063 | [5] -0.029 | [6] 0.054 | [7] 0.247 | [8] -0.14 | [9] -0.014 | [10] -0.01 | [11] 0.082 | [12] -0.07 | [13] 0.071 | [14] 0.031 | [15] 0.001 | [16] 0.043 | [17] 0.018 | [18] -0.025 | [19] -0.006 | [20] -0.054

BAZ1B (UniProt Q9UIG0)
inactive: [1] -0.037 | [2] 0.033 | [3] 0.03 | [4] -0.028 | [5] -0.042 | [6] 0.015 | [7] -0.039 | [8] 0.006 | [9] -0.029 | [10] 0.007 | [11] -0.044 | [12] -0.055 | [13] -0.043 | [14] 0.019 | [15] 0.012 | [16] 0.074 | [17] 0.128 | [18] 0.012 | [19] -0.013 | [20] -0.04

BTK isoform 2 (UniProt Q06187)
active: [13] 0.307
inactive: [1] -0.014 | [2] 0.013 | [3] 0.128 | [5] -0.106 | [6] 0.01 | [7] -0.147 | [8] 0.053 | [9] 0.058 | [10] -0.026 | [11] -0.037 | [12] -0.113 | [14] 0.017 | [15] -0.039 | [16] -0.033 | [17] 0.051 | [18] -0.012 | [19] -0.029 | [20] -0.046

BBC3 (UniProt Q9BXH1)
inactive: [1] -0.218 | [2] -0.02 | [3] 0.118 | [4] 0.125 | [5] 0.015 | [6] 0.078 | [7] -0.131 | [8] 0.063 | [9] -0.032 | [10] -0.028 | [11] -0.056 | [12] 0.037 | [13] -0.092 | [14] -0.109 | [15] -0.039 | [16] 0.016 | [17] -0.169 | [19] 0.035
